Experimental data from patent US20230399374A1 (PURDUE RESEARCH FOUNDATION, priority 2020, published 2023).

Assay: general procedure: Fmoc solid-phase peptide synthesis; Wang resin (0.6 mmol/g); 2-chlorotrityl resin for branched ligands and D10-Cys; HBTU/NMM, then double coupling with PyBOP/NMM
Settings: whole synthesis

AVSEHQLLHDKGKSIQDLRRRELLEKLLxKLHTAEIRATSEVSPNSeeeeeeeeeeeeeeeeeeee
final HPLC purity (analytical LC-MS (1220 LC; 6130 MS, Agilent), HPLC and mass spectrometry): 94% | isolated yield (overall): 19%

Plain letter strings leave the end groups untold.
